PubChem BioAssay AID1259425 – University of Nebraska Medical Center, 2018
Purpose: 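Compare each knockdown with KSR1 silencing using changes in marker transcripts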 (primary screen). System: HCT116 human colon cancer cells. Reagent: siRNA pool against human genes, 50 nM siRNA. Measurement: 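After 50 nM siRNA pool, branched-DNA assay measures six marker transcripts per well, minus blank, normalised to the geometric mean of two housekeeping transcripts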. Scale: BNIP3L mRNA: higher = more BNIP3L transcript after knockdown.
The deposit covers about 14,000 reagents; this is an unselected part. Not all columns of the deposit are shown. No sequences are given here. Not given: the time to read-out.

CHN1 (GeneID 1123) showed BNIP3L mRNA, set 1 = 0.0581.
With knock-down of BTG3 (GeneID 10950), the screen gave BNIP3L mRNA, set 1 = 0.0459.
HAUS2 (GeneID 55142) gave BNIP3L mRNA, set 1 = 0.0463.
DNAJC22 (GeneID 79962) scored BNIP3L mRNA, set 1 = 0.139.
P3H4 (GeneID 10609) gave BNIP3L mRNA, set 1 = 0.144.
For ZNF90 (GeneID 7643) the deposit lists BNIP3L mRNA, set 1 = 0.149.

Individual results from above.
Entry of CHN1 (GeneID 1123) under “BNIP3L mRNA, set 1”: 0.0581
For “BNIP3L mRNA, set 1”, DNAJC22 (GeneID 79962) has 0.139

The listing continues:
Knock-down of RANGAP1 (GeneID 5905) gave: BNIP3L mRNA, set 1 = 0.077.
CLCN5 (GeneID 1184) showed BNIP3L mRNA, set 1 = 0.0564.
After knock-down of NOVA2 (GeneID 4858) the results were BNIP3L mRNA, set 1 = 0.173.
For SORBS1 (GeneID 10580), the values are BNIP3L mRNA, set 1 = 0.0753.
After knock-down of RAI2 (GeneID 10742), the screen gave BNIP3L mRNA, set 1 = 0.133.
For GCC1 (GeneID 79571) the deposit lists BNIP3L mRNA, set 1 = 0.165.
